This list was built around the results that the source calls inconclusive (neither active nor inactive); the mix of calls is not that of the screen. For some assays here: Potencies beside an inconclusive call are fits to weak or partial responses and may not hold up. Calls of active or inactive are those of the source. The call rests on the fitted dose curve; in most records, active means well fitted cell-killing curve with a large enough effect; inconclusive means small, poorly fitted or top-dose-only effect, or effect the other way; inactive means no such curve, though single readings can be large or run the other way.
Assays:
[1] = Quantitative High-Throughput drug screen in 47 multiple myeloma cell lines against the NCATS MIPE library collection: EJM_DSMZ cell viability assay (AID 1918926; further: nearly all actives have a fitted effect of over 30% in size); details: EJM myeloma cell viability, CellTiter-Glo ATP, 48 h; series mostly up to 45.8 µM
Method in brief: (§1)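 Viability readout: CellTiter-Glo luminescence following 5 min room-temperature incubation with reagent. Prior exposure: 48 h, 37C, humidified 5% CO2, 500 cells per well.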

[2] = Quantitative High-Throughput drug screen in 47 multiple myeloma cell lines against the NCATS MIPE library collection: AMO1_DSMZ cell viability assay (AID 1918927; further: nearly all actives have a fitted effect of over 30% in size); details: AMO1 myeloma cells viability, CellTiter-Glo ATP luminescence, 48 h; series mostly up to 45.8 µM
Method in brief: as §1

[3] = Quantitative High-Throughput drug screen in 47 multiple myeloma cell lines against the NCATS MIPE library collection: ARP1_JJKsccF8 cell viability assay (AID 1918928; further: nearly all actives have a fitted effect of over 40% in size); details: ARP1 myeloma cells viability, CellTiter-Glo ATP, 48 h; viability: at 45.8 µM (top of the series)
Method in brief: (§2)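 CellTiter-Glo luminescence after 48 h exposure gives viability, scaled between DMSO-only (100%) and media-only (0%) controls. Library compounds are pinned onto 500 myeloma cells per well, incubated at 37C with 5% CO2.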

[4] = Quantitative High-Throughput drug screen in 47 multiple myeloma cell lines against the NCATS MIPE library collection: ARD_JJKsccE7 cell viability assay (AID 1918929); details: ARD myeloma cell line viability, CellTiter-Glo, 48 h; viability: at 45.8 µM (top of the series)
Method in brief: as §1

[5] = Quantitative High-Throughput drug screen in 47 multiple myeloma cell lines against the NCATS MIPE library collection: KMM1_JCRB cell viability assay (AID 1918960); details: KMM1 myeloma viability, CellTiter-Glo ATP luminescence, 48 h; viability (% of DMSO): at 45.8 µM (top of the series); further: nearly all actives have a fitted effect of over 30% in size
Method in brief: as §2

[6] = Quantitative High-Throughput drug screen in 47 multiple myeloma cell lines against the NCATS MIPE library collection: Karpas417_ECACC cell viability assay (AID 1918961); details: Karpas417 myeloma viability, CellTiter-Glo ATP luminescence, 48 h; viability (% of DMSO): at 45.8 µM (top of the series)
Method in brief: (§3)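 Relative luminescence from CellTiter-Glo served as the viability signal, referenced to DMSO-treated (100%) and cell-free medium (0%) controls. Treatment lasted 48 hours at 37C with 500 cells per well.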

[7] = Quantitative High-Throughput drug screen in 47 multiple myeloma cell lines against the NCATS MIPE library collection: Karpas620_DSMZ cell viability assay (AID 1918959); details: Karpas620 myeloma viability, CellTiter-Glo ATP luminescence, 48 h; viability (% of DMSO): at 45.8 µM (top of the series); further: nearly all actives have a fitted effect of over 30% in size
Method in brief: as §3

[8] = Quantitative High-Throughput drug screen in 47 multiple myeloma cell lines against the NCATS MIPE library collection: Delta47_JCRB cell viability assay (AID 1918925; further: nearly all actives have a fitted effect of over 45% in size); details: Delta47 myeloma viability, CellTiter-Glo ATP, 48 h; viability (% of DMSO): at 45.8 µM (top of the series)
Method in brief: as §1
Potency means the concentration at half of the fitted maximal effect.

Row | SMILES | Potency [1] | Potency [2] | Potency [3] | Potency [4] | Potency [5] | Potency [6] | Potency [7] | Potency [8]
1 | COc1c(C)c2c(c(O)c1CC=C(C)CCC(=O)OCCN1CCOCC1)C(=O)OC2 | inactive | active: 0.372 µM | inconclusive: 3.72 µM [cytotoxic, full curve] | active: 1.18 µM | inconclusive: 0.0105 µM [cytotoxic, full curve, poor fit] | inconclusive: 6.62 µM [cytotoxic, full curve, poor fit] |  | 
2 | COCC(=O)NCC=Cc1ccc2ncnc(Nc3ccc(Oc4ccc(C)nc4)c(C)c3)c2c1 | inconclusive: 23.5 µM [cytotoxic, partial curve] | inconclusive: 18.7 µM [cytotoxic, partial curve, poor fit] | inconclusive: 23.5 µM [cytotoxic, single point] | active: 11.8 µM |  | active: 10.5 µM | inconclusive: 23.5 µM [cytotoxic, partial curve] | 
3 | COc1cc2c(cc1OC)[C@@H]1C(=O)c3ccc4c(c3O[C@@H]1CO2)C=CC(C)(C)O4 |  |  |  | active: 0.0235 µM |  | active: 0.209 µM |  | active: 0.0105 µM
4 | Cc1ccc(NC(=O)c2ccc(CN3CCN(C)CC3)cc2)cc1Nc1nc(-c2cccnc2)cs1 | inconclusive: 13.2 µM [cytotoxic, partial curve] |  | active: 23.5 µM |  |  | inconclusive: 33.2 µM [cytotoxic, partial curve, poor fit] | inconclusive: 33.2 µM [cytotoxic, single point] | 
5 | O=C1CCC(N2C(=O)c3ccccc3C2=O)C(=O)N1 (configuration not stated) |  |  |  |  | inactive | inconclusive: 26.4 µM [rising, partial curve, poor fit] |  | inactive
6 | C=CC(=O)Nc1cc2c(Nc3ccc(F)c(Cl)c3)ncnc2cc1OCCCN1CCOCC1 | active: 7.43 µM | inconclusive: 3.32 µM [cytotoxic, partial curve, poor fit] |  | inconclusive: 0.296 µM [cytotoxic, full curve, poor fit] | inconclusive: 0.0021 µM [cytotoxic, full curve, poor fit] | inconclusive: 18.7 µM [rising, partial curve, poor fit] | inconclusive: 0.526 µM [cytotoxic, partial curve, poor fit] | 
7 | Nc1nc(=S)c2[nH]cnc2[nH]1 | inconclusive: 16.6 µM [cytotoxic, partial curve] | inconclusive: 0.0023 µM [rising, full curve] |  | inactive | inactive | inactive |  | 
8 | CCN(C)C(=O)Oc1cccc([C@H](C)N(C)C)c1 | inactive | inconclusive: 0.0235 µM [cytotoxic, full curve, poor fit] |  | inconclusive: 0.0059 µM [cytotoxic, full curve, poor fit] | inconclusive: 0.148 µM [rising, full curve, poor fit] | inconclusive: 0.0083 µM [cytotoxic, full curve, poor fit] |  | 
9 | C[C@H]1O[C@@H](n2cc(F)c(=O)[nH]c2=O)[C@H](O)[C@H]1O | inactive | inconclusive: 7.43 µM [cytotoxic, single point] | inactive | active: 1.32 µM |  | inactive | inconclusive: 13.2 µM [cytotoxic, single point] | 
10 | O=C1CN2Cc3c(ccc(Cl)c3Cl)N=C2N1 | inactive |  | inconclusive: 23.5 µM [cytotoxic, partial curve] | inactive | inactive | inconclusive: 18.7 µM [rising, partial curve, poor fit] |  | 
11 | CN(C)CC(=O)N1CCC(c2ccc(NC(=O)c3ncc(C#N)[nH]3)c(C3=CCCCC3)c2)CC1 | active: 18.7 µM |  | inactive | active: 3.32 µM | inactive |  |  | 
12 | CC1=CC(=O)c2ccccc2C1=O | active: 20.9 µM | inconclusive: 20.9 µM [cytotoxic, single point] |  |  | inactive |  |  | 
13 | Nc1ncnc2c1c(-c1cccc(OCc3ccccc3)c1)cn2C1CC(CN2CCCC2)C1 (configuration not stated) |  |  |  |  |  | inconclusive: 1.48 µM [cytotoxic, full curve, poor fit] |  | 
14 | COc1cccc2c1C(=O)c1c(O)c3c(c(O)c1C2=O)C[C@@](O)(C(=O)CO)C[C@@H]3O[C@H]1C[C@H](N)[C@@H](O)[C@H](C)O1 |  |  |  |  |  | inconclusive: 2.35 µM [cytotoxic, full curve, poor fit] | active: 2.35 µM | 
15 | CCN(CC)CCNC(=O)c1ccc2nc(-c3ccccc3)c(-c3ccc(CN4CCC(n5c(=O)[nH]c6ccccc65)CC4)cc3)nc2c1 |  |  | inconclusive: 14.8 µM [cytotoxic, partial curve, poor fit] |  | active: 1.66 µM |  | active: 0.935 µM | 

Exported with each value named: entries from further up.
COc1c(C)c2c(c(O)c1CC=C(C)CCC(=O)OCCN1CCOCC1)C(=O)OC2
  Potency [1]: inactive
  Potency [2]: active: 0.372 µM
  Potency [3]: inconclusive: 3.72 µM [cytotoxic, full curve]
  Potency [4]: active: 1.18 µM
  Potency [5]: inconclusive: 0.0105 µM [cytotoxic, full curve, poor fit]
  Potency [6]: inconclusive: 6.62 µM [cytotoxic, full curve, poor fit]
COCC(=O)NCC=Cc1ccc2ncnc(Nc3ccc(Oc4ccc(C)nc4)c(C)c3)c2c1
  Potency [1]: inconclusive: 23.5 µM [cytotoxic, partial curve]
  Potency [2]: inconclusive: 18.7 µM [cytotoxic, partial curve, poor fit]
  Potency [3]: inconclusive: 23.5 µM [cytotoxic, single point]
  Potency [4]: active: 11.8 µM
  Potency [6]: active: 10.5 µM
  Potency [7]: inconclusive: 23.5 µM [cytotoxic, partial curve]
